Laboratory results: patent US11925621B2, “Medicinal preparation for external use” (Sumitomo Pharma Co., Ltd., priority 2018, dated 2024)

Legend:
Assay type in all cases: in vivo
[1] = Concentration in plasma during continuous intravenous administration in guinea pigs; conditions: dose of 15 mg/kg continuous intravenous for 30 minutes
Protocol: Effect of Compound A or lidocaine to the cardiovascular system was studied from effects on ECG (electrocardiogram) parameters of guinea pigs under anesthesia. Evaluation of ECG of guinea pigs was conducted under anesthesia with intra-abdominal administration of a mixed solution of urethane and α-chloralose. Guinea pigs under anesthesia were retained in a supine position, and a right cervical vein was exposed to […] cannula. […] Compound A dissolved in a solvent at a dose of 30 mg/kg, lidocaine dissolved in a solvent at a dose of 15 mg/kg, or a solvent was continuously intravenously administered via a cannula at a constant rate for 30 minutes. […] QRS interval and QTc interval are shown as rates of change (%) by similar equations.

[2] = system: ECG (electrocardiogram) parameters of guinea pigs; test: Safety pharmacology study of the cardiovascular system: ECG parameters under anesthesia
Protocol: Test 3. Safety Pharmacology Study of the Cardiovascular System Effect of Compound A or lidocaine to the cardiovascular system was studied from effects on ECG (electrocardiogram) parameters of guinea pigs under anesthesia. Evaluation of ECG of guinea pigs was conducted under anesthesia with intra-abdominal administration of a mixed solution of urethane and α-chloralose. Guinea pigs under anesthesia were retained in a supine position, and a right cervical vein was exposed to […] cannula. […] QRS interval and QTc interval are shown as rates of change (%) by similar equations.

[3] = Concentration of the test compound in plasma after evaluation in SNL rats; conditions: Wistar, rat, topical about 10 mg formulation, blood collected immediately after evaluation (2 hours after application)
Protocol: One day after the division into groups, test compounds were administered. […] Administration of a test compound was carried out by application of about 10 mg of each formulation on a medical adhesive film, and attachment of the film to a footpad of a SNL rat at the side of operation under anesthesia with isoflurane inhalation. One hour after the application, the film was removed, and another one hour after, reaction thresholds after administration of the test compound were evaluated. After the evaluation, blood was immediately collected from a cervical vein, and the concentration of the test compound in plasma was measured.

maximum concentration in plasma [1]: 3.57 µg/mL
concentration at 2 h [3]: 133 ng/mL
Structure (SMILES): CCN(CC)CC(=O)Nc1c(C)cccc1C [lidocaine, reference compound]
QTc interval rate of change (prolonged) ([2]; 15 mg/kg continuous intravenous for 30 minutes, at 30 minutes after administration): 15.8%
plasma concentration with effect on ECG parameters relative to that at which the analgesic effect appeared ([2]; guinea pig maximum plasma concentration at 15 mg/kg versus SNL rat plasma concentration): about 27 times
